{"sequences": {"note": "The chains behind the UniProt entries cited, without tags or fusion partners. Where a name states a change or a piece, a line headed by the entry shows the natural chain unless it says otherwise.", "UniProt Q96B77": "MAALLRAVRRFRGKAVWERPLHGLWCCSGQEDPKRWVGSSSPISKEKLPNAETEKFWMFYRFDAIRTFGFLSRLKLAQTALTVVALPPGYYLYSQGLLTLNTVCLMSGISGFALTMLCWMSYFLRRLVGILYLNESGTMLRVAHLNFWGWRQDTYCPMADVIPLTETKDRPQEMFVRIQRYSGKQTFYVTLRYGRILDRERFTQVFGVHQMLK", "UniProt Q9H3S4": "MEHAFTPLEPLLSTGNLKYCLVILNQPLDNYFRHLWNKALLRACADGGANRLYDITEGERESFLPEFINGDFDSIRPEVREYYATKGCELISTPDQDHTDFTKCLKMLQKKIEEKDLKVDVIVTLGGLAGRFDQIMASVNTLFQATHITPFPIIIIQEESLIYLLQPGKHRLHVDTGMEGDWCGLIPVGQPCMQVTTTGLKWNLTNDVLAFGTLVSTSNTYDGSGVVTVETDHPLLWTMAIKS", "UniProt Q9H061": "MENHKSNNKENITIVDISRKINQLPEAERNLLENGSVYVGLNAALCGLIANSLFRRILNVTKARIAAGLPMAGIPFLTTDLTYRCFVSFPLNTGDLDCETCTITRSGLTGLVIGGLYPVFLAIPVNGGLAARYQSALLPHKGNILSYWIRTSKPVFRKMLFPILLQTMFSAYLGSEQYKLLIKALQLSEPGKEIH", "UniProt Q9NYL9": "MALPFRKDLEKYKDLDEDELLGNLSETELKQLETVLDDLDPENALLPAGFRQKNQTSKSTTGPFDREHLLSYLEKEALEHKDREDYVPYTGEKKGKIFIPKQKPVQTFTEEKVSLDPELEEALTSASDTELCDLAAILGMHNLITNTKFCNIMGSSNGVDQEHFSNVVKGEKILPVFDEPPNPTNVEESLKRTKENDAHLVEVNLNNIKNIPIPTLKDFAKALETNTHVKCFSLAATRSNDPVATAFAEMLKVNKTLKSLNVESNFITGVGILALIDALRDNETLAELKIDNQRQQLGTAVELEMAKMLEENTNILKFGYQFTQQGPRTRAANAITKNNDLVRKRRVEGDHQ", "UniProt Q15814": "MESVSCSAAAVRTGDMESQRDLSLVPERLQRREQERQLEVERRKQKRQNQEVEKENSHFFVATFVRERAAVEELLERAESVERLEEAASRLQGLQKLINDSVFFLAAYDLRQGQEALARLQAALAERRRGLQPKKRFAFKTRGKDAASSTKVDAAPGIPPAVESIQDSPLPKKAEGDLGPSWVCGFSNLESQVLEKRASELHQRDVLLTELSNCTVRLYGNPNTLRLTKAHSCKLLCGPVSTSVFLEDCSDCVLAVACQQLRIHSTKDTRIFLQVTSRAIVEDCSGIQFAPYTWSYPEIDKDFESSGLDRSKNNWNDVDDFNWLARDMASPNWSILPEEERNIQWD", "UniProt Q9NXF1": "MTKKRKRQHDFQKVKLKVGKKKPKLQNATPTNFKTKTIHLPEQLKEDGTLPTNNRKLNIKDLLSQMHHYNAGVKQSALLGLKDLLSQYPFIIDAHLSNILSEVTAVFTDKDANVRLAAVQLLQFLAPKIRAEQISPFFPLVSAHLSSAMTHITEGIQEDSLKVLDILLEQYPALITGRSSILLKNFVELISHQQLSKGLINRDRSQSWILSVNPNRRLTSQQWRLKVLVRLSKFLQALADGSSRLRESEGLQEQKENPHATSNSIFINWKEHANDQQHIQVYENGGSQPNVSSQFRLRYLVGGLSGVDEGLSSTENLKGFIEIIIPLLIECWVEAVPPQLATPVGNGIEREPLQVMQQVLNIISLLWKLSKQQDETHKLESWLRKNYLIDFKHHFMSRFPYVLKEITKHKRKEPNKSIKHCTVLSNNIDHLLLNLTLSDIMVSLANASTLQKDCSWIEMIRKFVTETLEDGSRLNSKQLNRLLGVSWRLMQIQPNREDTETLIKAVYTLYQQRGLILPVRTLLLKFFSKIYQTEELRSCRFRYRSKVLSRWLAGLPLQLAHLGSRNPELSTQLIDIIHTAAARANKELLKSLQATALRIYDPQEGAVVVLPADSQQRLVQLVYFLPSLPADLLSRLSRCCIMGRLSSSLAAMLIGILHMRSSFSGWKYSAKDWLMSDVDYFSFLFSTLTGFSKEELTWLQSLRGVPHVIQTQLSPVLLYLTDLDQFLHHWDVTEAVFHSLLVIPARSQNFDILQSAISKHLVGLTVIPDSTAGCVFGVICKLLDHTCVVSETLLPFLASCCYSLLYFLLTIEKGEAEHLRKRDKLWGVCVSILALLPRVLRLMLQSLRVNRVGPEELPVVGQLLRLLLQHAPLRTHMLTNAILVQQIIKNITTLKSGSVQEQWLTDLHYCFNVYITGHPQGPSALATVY", "UniProt Q96S44": "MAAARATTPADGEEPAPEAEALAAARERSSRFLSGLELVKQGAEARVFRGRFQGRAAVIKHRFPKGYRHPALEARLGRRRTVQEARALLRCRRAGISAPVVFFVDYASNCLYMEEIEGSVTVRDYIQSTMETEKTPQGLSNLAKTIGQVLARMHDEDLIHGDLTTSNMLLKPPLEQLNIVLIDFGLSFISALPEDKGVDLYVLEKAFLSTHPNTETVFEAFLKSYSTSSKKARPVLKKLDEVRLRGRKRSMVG", "UniProt Q96J01": "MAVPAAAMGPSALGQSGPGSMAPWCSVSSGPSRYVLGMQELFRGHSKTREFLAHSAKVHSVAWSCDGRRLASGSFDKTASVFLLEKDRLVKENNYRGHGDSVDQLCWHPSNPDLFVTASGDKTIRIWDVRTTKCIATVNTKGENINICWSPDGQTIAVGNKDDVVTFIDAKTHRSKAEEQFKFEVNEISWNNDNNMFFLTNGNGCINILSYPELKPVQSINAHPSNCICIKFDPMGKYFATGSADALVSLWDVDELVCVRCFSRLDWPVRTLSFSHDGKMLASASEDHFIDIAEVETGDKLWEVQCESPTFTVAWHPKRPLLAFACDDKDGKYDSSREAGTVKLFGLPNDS", "UniProt Q9Y5J9": "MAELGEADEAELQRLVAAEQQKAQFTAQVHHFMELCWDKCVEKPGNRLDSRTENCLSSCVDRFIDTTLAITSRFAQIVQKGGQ", "UniProt P11387": "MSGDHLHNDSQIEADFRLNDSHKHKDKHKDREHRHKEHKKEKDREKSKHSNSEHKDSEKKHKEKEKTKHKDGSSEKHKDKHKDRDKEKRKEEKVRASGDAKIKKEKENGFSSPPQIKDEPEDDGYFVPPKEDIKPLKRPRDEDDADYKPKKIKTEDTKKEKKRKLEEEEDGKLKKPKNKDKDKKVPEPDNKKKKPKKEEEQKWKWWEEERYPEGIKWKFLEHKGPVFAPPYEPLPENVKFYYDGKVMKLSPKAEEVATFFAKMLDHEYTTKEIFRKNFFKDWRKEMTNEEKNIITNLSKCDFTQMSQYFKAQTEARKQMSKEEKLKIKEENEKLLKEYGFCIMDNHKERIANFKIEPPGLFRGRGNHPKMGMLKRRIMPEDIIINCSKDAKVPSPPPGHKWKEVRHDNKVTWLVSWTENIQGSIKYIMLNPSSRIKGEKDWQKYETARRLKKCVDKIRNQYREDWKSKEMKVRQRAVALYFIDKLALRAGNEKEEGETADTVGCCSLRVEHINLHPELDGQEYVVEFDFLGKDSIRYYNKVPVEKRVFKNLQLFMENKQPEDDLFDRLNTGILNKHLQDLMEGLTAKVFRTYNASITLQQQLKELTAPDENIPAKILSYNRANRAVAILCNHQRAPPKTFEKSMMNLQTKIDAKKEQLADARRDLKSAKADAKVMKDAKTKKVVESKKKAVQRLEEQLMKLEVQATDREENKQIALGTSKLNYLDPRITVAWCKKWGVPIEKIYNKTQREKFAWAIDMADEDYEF", "UniProt P31483": "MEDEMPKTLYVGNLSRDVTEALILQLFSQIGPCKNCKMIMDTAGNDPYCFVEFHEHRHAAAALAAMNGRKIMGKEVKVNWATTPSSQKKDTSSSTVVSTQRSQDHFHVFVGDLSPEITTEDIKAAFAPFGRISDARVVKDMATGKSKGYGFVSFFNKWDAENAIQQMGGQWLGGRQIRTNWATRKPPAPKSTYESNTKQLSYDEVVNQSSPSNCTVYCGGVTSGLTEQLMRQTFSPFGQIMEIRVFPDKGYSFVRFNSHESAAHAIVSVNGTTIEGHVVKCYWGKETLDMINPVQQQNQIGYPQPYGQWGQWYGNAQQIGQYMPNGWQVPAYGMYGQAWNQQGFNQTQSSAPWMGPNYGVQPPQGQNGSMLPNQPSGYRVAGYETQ", "UniProt Q9UPU7": "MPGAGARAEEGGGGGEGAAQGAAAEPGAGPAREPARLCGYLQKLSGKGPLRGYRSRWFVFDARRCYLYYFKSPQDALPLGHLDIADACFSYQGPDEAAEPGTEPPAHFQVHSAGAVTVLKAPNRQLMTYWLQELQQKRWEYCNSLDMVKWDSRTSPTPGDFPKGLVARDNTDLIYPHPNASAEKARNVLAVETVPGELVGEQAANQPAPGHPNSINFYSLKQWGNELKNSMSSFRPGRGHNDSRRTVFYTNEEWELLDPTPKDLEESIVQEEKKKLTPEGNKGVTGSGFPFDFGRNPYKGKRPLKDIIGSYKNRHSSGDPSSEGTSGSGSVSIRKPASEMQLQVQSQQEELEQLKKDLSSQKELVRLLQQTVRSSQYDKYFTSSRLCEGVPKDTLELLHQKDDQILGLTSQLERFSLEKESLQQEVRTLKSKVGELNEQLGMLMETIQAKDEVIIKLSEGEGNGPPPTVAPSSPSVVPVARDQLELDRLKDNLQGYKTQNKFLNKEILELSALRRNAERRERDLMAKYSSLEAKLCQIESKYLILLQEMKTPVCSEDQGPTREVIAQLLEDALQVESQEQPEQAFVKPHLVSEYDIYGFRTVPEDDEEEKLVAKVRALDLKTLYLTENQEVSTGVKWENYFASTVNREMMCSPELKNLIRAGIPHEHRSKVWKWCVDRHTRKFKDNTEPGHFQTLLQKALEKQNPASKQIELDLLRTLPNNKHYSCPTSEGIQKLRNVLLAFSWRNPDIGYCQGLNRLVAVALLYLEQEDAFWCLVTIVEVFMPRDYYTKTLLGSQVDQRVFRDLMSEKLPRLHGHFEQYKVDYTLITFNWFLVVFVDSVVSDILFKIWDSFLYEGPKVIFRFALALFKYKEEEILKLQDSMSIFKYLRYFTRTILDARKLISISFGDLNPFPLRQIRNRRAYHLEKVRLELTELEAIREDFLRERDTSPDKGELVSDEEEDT", "UniProt Q969M1": "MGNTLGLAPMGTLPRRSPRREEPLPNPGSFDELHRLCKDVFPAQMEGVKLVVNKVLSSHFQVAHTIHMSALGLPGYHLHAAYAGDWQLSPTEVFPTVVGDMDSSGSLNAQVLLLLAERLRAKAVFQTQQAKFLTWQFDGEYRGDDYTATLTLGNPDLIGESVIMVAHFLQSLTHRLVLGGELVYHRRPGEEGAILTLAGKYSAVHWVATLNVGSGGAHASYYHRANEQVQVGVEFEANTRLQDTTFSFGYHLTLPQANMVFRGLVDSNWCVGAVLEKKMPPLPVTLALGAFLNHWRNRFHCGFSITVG", "UniProt A5PLL7": "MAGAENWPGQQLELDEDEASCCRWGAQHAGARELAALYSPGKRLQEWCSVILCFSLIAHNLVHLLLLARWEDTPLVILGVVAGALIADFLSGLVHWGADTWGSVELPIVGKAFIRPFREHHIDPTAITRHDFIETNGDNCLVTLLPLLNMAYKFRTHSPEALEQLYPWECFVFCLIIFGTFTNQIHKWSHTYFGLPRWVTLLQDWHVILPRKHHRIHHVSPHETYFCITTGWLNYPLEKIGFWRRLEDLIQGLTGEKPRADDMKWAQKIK", "UniProt P04183": "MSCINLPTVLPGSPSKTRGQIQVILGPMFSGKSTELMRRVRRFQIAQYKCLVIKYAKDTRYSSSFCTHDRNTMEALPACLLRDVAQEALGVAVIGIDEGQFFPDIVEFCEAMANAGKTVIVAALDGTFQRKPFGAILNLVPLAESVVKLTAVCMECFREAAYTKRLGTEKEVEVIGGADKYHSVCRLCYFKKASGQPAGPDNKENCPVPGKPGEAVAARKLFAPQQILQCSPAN", "UniProt O14656": "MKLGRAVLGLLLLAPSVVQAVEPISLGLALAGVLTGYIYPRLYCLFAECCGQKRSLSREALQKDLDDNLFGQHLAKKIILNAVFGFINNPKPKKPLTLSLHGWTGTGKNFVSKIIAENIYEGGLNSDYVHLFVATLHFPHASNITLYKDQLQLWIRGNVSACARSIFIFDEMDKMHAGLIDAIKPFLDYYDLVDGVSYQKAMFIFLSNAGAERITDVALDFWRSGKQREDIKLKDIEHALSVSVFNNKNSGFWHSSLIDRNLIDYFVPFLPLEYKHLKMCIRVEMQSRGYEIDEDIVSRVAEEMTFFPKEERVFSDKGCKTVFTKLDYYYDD", "UniProt Q9NXG2": "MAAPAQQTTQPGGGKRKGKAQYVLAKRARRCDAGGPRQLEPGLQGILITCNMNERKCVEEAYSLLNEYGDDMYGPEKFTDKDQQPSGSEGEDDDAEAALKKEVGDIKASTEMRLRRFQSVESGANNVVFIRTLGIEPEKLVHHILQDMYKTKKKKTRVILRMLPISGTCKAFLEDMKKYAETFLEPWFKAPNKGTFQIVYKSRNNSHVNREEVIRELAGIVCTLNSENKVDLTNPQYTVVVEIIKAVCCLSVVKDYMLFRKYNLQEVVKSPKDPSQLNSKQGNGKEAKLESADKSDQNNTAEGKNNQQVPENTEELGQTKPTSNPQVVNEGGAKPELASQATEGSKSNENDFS"}, "source": "the supplement of paper PMC7666118", "note": "The list shows a part of the results.", "data": [{"compound": "COc1ccc(Cn2ccc3ccc(C(=O)NO)cc32)cc1", "assay": "dose-dependent thermal stabilisation call (2D-TPP, DLPTP, 10% FDR) (binary (1 = stabilised)); higher = stabilised by the compound", "details": "system: HL-60 intact cells; concentration range 0.04-10 µM", "values": [{"target": "TMEM186 (UniProt Q96B77)", "dose-dependent thermal stabilisation call": "inactive: 0"}, {"target": "TMEM9 (UniProt Q9P0T7)", "dose-dependent thermal stabilisation call": "inactive: 0"}, {"target": "TOX4 (UniProt O94842)", "dose-dependent thermal stabilisation call": "inactive: 0"}, {"target": "TMED5 (UniProt Q9Y3A6)", "dose-dependent thermal stabilisation call": "inactive: 0"}, {"target": "THYN1 (UniProt Q9P016)", "dose-dependent thermal stabilisation call": "inactive: 0"}, {"target": "TPK1 (UniProt Q9H3S4)", "dose-dependent thermal stabilisation call": "inactive: 0"}, {"target": "TMEM126A (UniProt Q9H061)", "dose-dependent thermal stabilisation call": "inactive: 0"}, {"target": "TMOD3 (UniProt Q9NYL9)", "dose-dependent thermal stabilisation call": "inactive: 0"}, {"target": "TNRC6A (UniProt Q8NDV7)", "dose-dependent thermal stabilisation call": "inactive: 0"}, {"target": "TPM3 (UniProt P06753)", "dose-dependent thermal stabilisation call": "inactive: 0"}, {"target": "TBCC (UniProt Q15814)", "dose-dependent thermal stabilisation call": "inactive: 0"}, {"target": "TIMM17A (UniProt Q99595)", "dose-dependent thermal stabilisation call": "inactive: 0"}, {"target": "TEX10 (UniProt Q9NXF1)", "dose-dependent thermal stabilisation call": "inactive: 0"}, {"target": "TP53RK (UniProt Q96S44)", "dose-dependent thermal stabilisation call": "inactive: 0"}, {"target": "TNFRSF1A (UniProt P19438)", "dose-dependent thermal stabilisation call": "inactive: 0"}, {"target": "TNIK (UniProt Q9UKE5)", "dose-dependent thermal stabilisation call": "inactive: 0"}, {"target": "THOC3 (UniProt Q96J01)", "dose-dependent thermal stabilisation call": "inactive: 0"}, {"target": "TMEM106B (UniProt Q9NUM4)", "dose-dependent thermal stabilisation call": "inactive: 0"}, {"target": "THUMPD2 (UniProt Q9BTF0)", "dose-dependent thermal stabilisation call": "inactive: 0"}, {"target": "TIMM8B (UniProt Q9Y5J9)", "dose-dependent thermal stabilisation call": "inactive: 0"}, {"target": "TOM1 (UniProt O60784)", "dose-dependent thermal stabilisation call": "inactive: 0"}, {"target": "TOP1 (UniProt P11387)", "dose-dependent thermal stabilisation call": "inactive: 0"}, {"target": "THEM2 (UniProt Q9NPJ3)", "dose-dependent thermal stabilisation call": "inactive: 0"}, {"target": "TIA1 (UniProt P31483)", "dose-dependent thermal stabilisation call": "inactive: 0"}, {"target": "TARDBP (UniProt Q13148)", "dose-dependent thermal stabilisation call": "inactive: 0"}, {"target": "TBC1D2B (UniProt Q9UPU7)", "dose-dependent thermal stabilisation call": "inactive: 0"}, {"target": "TMEM115 (UniProt Q12893)", "dose-dependent thermal stabilisation call": "inactive: 0"}, {"target": "TOMM40L (UniProt Q969M1)", "dose-dependent thermal stabilisation call": "inactive: 0"}, {"target": "TMEM5 (UniProt Q9Y2B1)", "dose-dependent thermal stabilisation call": "inactive: 0"}, {"target": "TM9SF4 (UniProt Q92544)", "dose-dependent thermal stabilisation call": "inactive: 0"}, {"target": "TLN2 (UniProt Q9Y4G6)", "dose-dependent thermal stabilisation call": "inactive: 0"}, {"target": "TMSB10 (UniProt P63313)", "dose-dependent thermal stabilisation call": "inactive: 0"}, {"target": "TMEM189-UBE2V1 (UniProt A5PLL7)", "dose-dependent thermal stabilisation call": "inactive: 0"}, {"target": "TK1 (UniProt P04183)", "dose-dependent thermal stabilisation call": "inactive: 0"}, {"target": "TOR1A (UniProt O14656)", "dose-dependent thermal stabilisation call": "inactive: 0"}, {"target": "TMEM160 (UniProt Q9NX00)", "dose-dependent thermal stabilisation call": "inactive: 0"}, {"target": "TOP3A (UniProt Q13472)", "dose-dependent thermal stabilisation call": "inactive: 0"}, {"target": "THUMPD1 (UniProt Q9NXG2)", "dose-dependent thermal stabilisation call": "inactive: 0"}]}]}
